Test results reported in the DeepSol protein solubility set.

assay: soluble on expression in E. coli; label from the status in PepcDB or PDB records

Sequence	soluble on expression in E. coli
MPLAYSTHDNFYESPKTPQPTWDHVHAQFPLGEPARNLDKFIEAMFQSVSPLAGVAAAPSQIAALQQIQALMTFQMQQNNLFPKIDTISKSPTPELASPSAKRMRLSPSTSSHSDVASTSKGTNGQDQSKNSPTNSDPFYTIGQSTPNTSSFLDTSNSSFGAPSTVVANPMTNYQLAFQAKLGSLHSLIGDSVQSLTSDRMIDFLSNKEKYECVISIFHAKVAQKSYGNEKRFFCPPPCIYLIGQGWKLKKDRVAQLYKTLKASAQKDAAIENDPIHEQQATELVAYIGIGSDTSERQQLDFSTGKVRHPGDQRQDPNIYDYCAAKTLYISDSDKRKYFDLNAQFFYGCGMEIGGFVSQRIKVISKPSKKKQSMKNTDCKYLCIASGTKVALFNRLRSQTVSTRYLHVEGNAFHASSTKWGAFTIHLFDDERGLQETDNFAVRDGFVYYGSVVKLVDSVTGIALPRLRIRKVDKQQVILDASCSEEPVSQLHKCAFQMIDNELVYLCLSHDKIIQHQATAINEHRHQINDGAAWTIISTDKAEYRFFEAMGQVANPISPCPVVGSLEVDGHGEASRVELHGRDFKPNLKVWFGATPVETTFRSEESLHCSIPPVSQVRNEQTHWMFTNRTTGDVEVPISLVRDDGVVYSSGLTFSYKSLERHGPCRIVSNY	not soluble
MSEHSEDTEDIKPTISTAPDDCMESDPIKEINFLLASSKNMKIEETPVFNIRLIAEVKARPFLYDQSDEGYNLLSWRNSAWNEIAENLETTSEHVKTRWKTLRDRYKKEEKKERVSKKASSWVFQRPLKFIQAHLKDRQ	not soluble
MSGASKKVSEEELQKQYADYRAQFEQWKENNKGSIGTEAYNSYVQQFEQWEKEVEARTSQQQKHRKAAAVDKEAEAAAAAYAQSQEAYMAHHLRGMEQTEMQKRAAAAAQLQQQQMMQNMMMQRPPQHQQPPPQDVMFGAVGRVAQGAPAAAPPPTQQPPPQLWGNNKPIYDARDPLFAKWGERAASAHCKPETEQQINPVACWLLLDALREKKMVLAPHSNTCPPPQIGGHQI	not soluble
MSGGGKDRIAVFPSRMAQTLMKTRLKGAQKGHSLLKKKADALNLRFRDILRKIVENKVLMGEVMKEAAFSLAEAKFTAGDFSHTVIQNVSQAQYRVRMKKENVVGVFLPVFDAYQDGPDAYDLTGLGKGGANIARLKKNYNKAIELLVELATLQTCFITLDEAIKVTNRRVNAIEHVIIPRIENTLTYIVTELDEMEREEFFRMKKIQANKKKLKEQEAAQKALEGPGPGEDAAHSENNPPRNLLASEEDNLPVLFN	not soluble
MSKRDFYEVLGVGRDASERDIKKAYKRLAMKYHPDRNSGDAGAAEKFKEVKEAYEILTDAQKKAAYDQYGHAAFEQGAGGFGGGGFGGGGADFGDIFGDVFGDIFGGGRRGGGPRAQRGSDLRYNMELSLEEAVRGCSKEIEVPTLVHCDACDGSGAKKGTSAQTCGTCHGHGQVQMRQGFFAVQQTCPTCHGKGKIIKDPCNVCHGQGRKQKTKTLNVKIPAGVDTGDRIRLSGEGEAGEMGAPAGDLYVQVHVKEHHIFERDGNNLYCEVPVSFAMAALGGEVEVPTLDGRVSLKVPAETQTGRMFRMRGKGVKGVRSAALGDLIVKLVVETPVNLSARQKELLKEFEESCGGEAATKHKPKAEGFFNGVKKFFDDLTS	not soluble
MSLSPNPLLQVRNLSVSFTTNDGVVDAVKNVSFDIRPGETLAIVGESGSGKSVSTNALMQLLPKNARIHPESSIMFEGEELLNKTDTQMRRIRGDRIGMIFQEPMTSLNPYMRVGVQVAEAIRCHRNVSQNQAKQRVLELFQLVHLPDPKGAYQKFPHEFSGGQLQRIMIAMALINEPDILIADEPTTALDVTVQAEVLRLIKEIQANMGMAILFITHDLGVVKFVADRVLVMCKGDVVEQGSTEQLFLQPEHDYTRMLINSIPKGSKDPVAEGHHHHHH	soluble
MSWMLRSLSARFSRNRQQQQKSQTQDASFDTKKFVQCKVLLLDGAHLNIVVPRNAVGSELYEEVFYSLDLEERDYFGLQYTDPFNVQHWLDPTKKVAKQVAIGPPFTLRFRVKFFTSEPSSNLKEELTRYQFFLQIKQDISSGRLQCPHQLAIELAAFALQSELGDYNPELHTALFISEFRFHPEQDEKMEVEILERYKACRGQTPAQAELNYLNKARWIEMYGVDMHIVEGKDGNTYRLGLTPQGMLVFDGPQKIGLFLWEKLQKLDFKNKKITLVVEEDADQSNNGQIQLHTFVFHLTSEKAAKHFWKCAIEQHAFFRLKSRPIQANRKIQFFRLGSTFKYRGRTEYETIHKEGARLSRRQSCSFERRPSQRYGPRQSHVTNAQIRDAKRAEMRQQIIEQQRANDQQRTHAKSDPTSPHSIIQNVPLPTSPDLKKPVNNSNPFISDPLTPSSSSSSSSHNLSHVTKITVGTIGNLDTPSSSAAPSSYIPRPVVSTSTSFSHPPPLPAHQSNSKIPRMSSASEQRKSSQPPQPAVRMQTQFEEPRKYSQNGCAPPSRIVPPMQHQRRIVTDF	not soluble
MTHAMLKGSNVPLQATTVRAVLRWTPGQGVPDVDASALLLGPDDRVRSDEDFVFYNQPRHPSGQVWRLGKKRVAEGLTDTIQTDLSGVEPSVGRILLVASADGVTFDRVRSLRILLHDAAADAEPLAYFDVTPETGQETALICGELYRRGEGWKFRALGEGYSNGLRGLATDFGISVDESEGANDPMSAPRPDAASTSPAAASAASSSAPSQATPDQPTPARSIPAPPVVGPDHPTAVQPLPGPSRPLPPEQPTGVPAQPAYGYPQQPATAQPAYGYPQPDAGRPGYGYPQAPAAAGATGAQSGYGYPQPVTGAPDPDFRLPPQGPQFVGR	not soluble
MTISKNNKMMAHLNYRMKIILQDGRTFIGFFKAFDKHMNILLAECEEHRQIKPKAGKKTDGEEKRILGLVLVRGEHIVSMTVDGPPPRDDDSVRLAKAGGAGGVGQAKPGGRGMPAMPGMPGMPPGGAPGGLSGAMRGHGGPGMAAMQPGYGGPPGGRPF	not soluble
MTLTQEQRLVLDAVRRVAREVLYPLAPEYDRKAEYPWPQLKALAELGLLGMTTPEEWGGVGLDSVTWALALEELAAADPSVAVIVSVTSGLPQYMLLRFGSEAQKRRYLVPLARGEWIGAFCLTEPQAGSDAKSLRAEARRVKGGFVLNGVKSWITSAGHAHLYVVMARTEKGISAFLVEKGTPGLSFGRPEEKMGLHAAHTAEVRLEEVFVPEENLLGEEGRGLAYALAGLDSGRVGVAAQAVGIARGAFEIAKAYAEEREQFGKKLKEHQAIAFKIADMHVKIAAARALVLEAARKKDRGERFTLEASAAKLFASAAAVEVTREAVQVLGGYGYHRDYRVERYYRDAKVTEIYEGTSEIQRLVIARELYR	soluble
MVREGIVLGHKISKKGVQVNKAKVDVMMQLQPPKTGKDIRSFLGHAGFYRRFIKDFSKLARPLTRLLCKEAEFIFEEECLTAFKSTKEALVSAPIVQAPNRDYPFEIMCDDSDYAVGAVLGQKIDRKLHVIYYASGTMDDTQVRYATTEKELLAVVFAFEKFRSYLVGSKVTVYTDHAALRHIYAKKDTKPRLLRWILLLQEFDMEIVDKKGIENGVADHLSRMRIEDEVPIDDSMPEEQLMAIQQLNESAQINKSLDQVCAVEDKLMWYADHVKYLFGGEEPPNLSSYEKKKFFKDINHF	soluble
PGKTGLGNMHAQRQFVVAAVRAEVRRHEVAKQALNRLRKLAERVDDPELQDSIQASLDSIREAVINSQEWTLSRSIPELRLGVLGDARSGKSSLIHRFLTGSYQVLEKTESEQYKKEMLVDGQTHLVLIREEAGAPDAKFSGWADAVIFVFSLEDENSFQAVSRLHGQLSSLRGEGRGGLALALVGTQDRISASSPRVVGDARARALCADMKRCSYYETCATYGLNVDRVFQEVAQKVVTLRKQQQLLAACKSLPSSPSHSAASTPVAGQASNGGHTSDYSSSLPSSPNVGHRELRAEAAAVAGLSTPGSLHRAAKRRTSLFANRRGSDSEKRSLDSRGETTGSGRAIPIKQSFLLKRSGNSLNKEWKKKYVTLSSNGFLLYHPSINDYIHSTHGKEMDLLRTTVKVPGKRPPRAISAFGPSASINGLVKDMSTVQMGEGLEATTPMPSPSPSPSSLQPPPDQTSKHLLKPDRNLARALSTDCTPSGDLSPLSREPPPSPMVKKQRRKKLTTPSKTEGSAGQAEEENFEFLIVSSTGQTWHFEAASFEERDAWVQAIESQILASLQCCESSKVKLRTDSQSEAVAIQAIRNAKGNSICVDCGAPNPTWASLNLGALICIECSGIHRNLGTHLSRVRSLDLDDWPRELTLVLTAIGNDTANRVWESDTRGRAKPSRDSSREERESWIRAKYEQLLFLAPLSTSEEPLGRQLWAAVQAQDVATVLLLLAHARHGPLDTSVEDPQLRSPLHLAAELAHVVITQLLLWYGADVAARDAQGRTALFYARQAGSQLCADILLQHGCPGEGGSAATTPSAATTPSITATPSPRRRSSAASVGRADAPVALV	soluble
SARTCPPNQFSCASGRCIPISWTCDLDDDCGDRSDESASCAYPTCFPLTQFTCNNGRCININWRCDNDNDCGDNSDEAGCSH	soluble
VEVDCSRFPNTTNEEGKDVLVCTEDLRPICGTDGVTHSECLLCAYNIEYGTNISKEHDGECREAVPMDCSRYPNTTSEEGKVMILCNKALNPVCGTDGVTYDNECVLCAHNLEQGTSVGKKHDGECRKELAAVSVDCSEYPKPACTLEYRPLCGSDNKTYGNKCNFCNAVVESNGTLTLSHFGKC	soluble
VQDRVKRPMNAFIVWSRDQRRKMALENPRMRNSEISKQLGYQWKMLTEAEKWPFFQEAQKLQAMHREKYPNYKYRKGETKKKFKDPNAPKRPPSAFFLFCSEYRPKIKGEHPGLSIGDVAKKLGEMWNNTAADDKQPYEKKAAKLKEKYEKDIAAYRAK	soluble
